From PubChem BioAssay AID1671190 (National Center for Advancing Translational Sciences (NCATS), 2021)
The whole screen tested about 580,000 compounds, of which about 6,100 (1.1%) were called active. The shares of active, inactive and inconclusive entries below differ from those in the screen. The call rests on the fitted dose curve; in most records, active means well fitted inhibition curve with a large enough effect; inconclusive means small, poorly fitted or top-dose-only effect, or another doubt; inactive means no such curve, though single readings can be large or run the other way. A potency beside an inconclusive call is a rough fit, not a confirmed value.

Chains of the proteins cited; added tags and fusions are not shown. Lines headed by an entry give the natural chain unless they say otherwise; changes in a name come on top.
UniProt P18054: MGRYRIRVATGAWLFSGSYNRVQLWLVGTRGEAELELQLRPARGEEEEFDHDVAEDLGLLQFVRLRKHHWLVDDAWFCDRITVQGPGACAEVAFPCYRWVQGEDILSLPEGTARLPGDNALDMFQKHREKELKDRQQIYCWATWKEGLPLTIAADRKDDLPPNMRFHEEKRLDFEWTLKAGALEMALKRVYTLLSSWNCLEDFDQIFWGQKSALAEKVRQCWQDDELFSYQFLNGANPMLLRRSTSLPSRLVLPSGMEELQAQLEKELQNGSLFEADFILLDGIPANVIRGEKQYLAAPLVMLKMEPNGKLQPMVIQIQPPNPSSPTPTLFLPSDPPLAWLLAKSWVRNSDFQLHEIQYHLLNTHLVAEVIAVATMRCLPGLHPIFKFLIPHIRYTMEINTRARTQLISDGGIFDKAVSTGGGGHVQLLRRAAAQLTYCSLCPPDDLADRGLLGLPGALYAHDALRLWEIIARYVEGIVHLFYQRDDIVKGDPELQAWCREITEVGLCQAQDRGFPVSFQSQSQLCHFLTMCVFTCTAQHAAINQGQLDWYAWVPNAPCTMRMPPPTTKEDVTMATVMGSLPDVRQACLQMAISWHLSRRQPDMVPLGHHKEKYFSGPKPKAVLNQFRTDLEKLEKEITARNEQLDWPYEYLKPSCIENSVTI

The compounds below were run against Polyunsaturated fatty acid lipoxygenase ALOX12 (Homo sapiens) (UniProt P18054) (assay: Primary qHTS assay for inhibitors of human arachidonate 12S-lipoxygenase (ALOX12): Round 2). Settings: purified 12hLO, xylenol orange hydroperoxide absorbance; series mostly up to 108 µM.
Method in brief: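 Purified human 12hLO at 150 nM in 25 mM Hepes, 0.01% Triton X-100, pH 7.0, preincubated 15 min at room temperature with compound. Reaction started with 40 uM arachidonic acid, 30 min at room temperature. Hydroperoxide measured by Fe-xylenol orange, 573/405 nm absorbance ratio.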
Potency means the concentration at half of the fitted maximal effect.

| Compound | Potency |
| --- | --- |
| O=C(NC(=S)NC1CCCCC1)c1ccc(F)cc1 | inconclusive: 14.1 µM [inhibitor, partial curve, poor fit] |
| CCOc1ccc(-n2cnc3sc4c(c3c2=O)CCCC4)cc1 | inconclusive: 112 µM [inhibitor, single point] |
| Cc1ccc(Cl)cc1NC(=O)CCN=C1NS(=O)(=O)c2ccccc21 | inactive |
| COc1ccc(C(=O)N/C(=C/c2ccco2)C(=O)NCc2ccco2)cc1 | inconclusive: 50.1 µM [inhibitor, partial curve, poor fit] |
| O=C(NC1CCCCC1)C(c1cccs1)N(CCCN1CCOCC1)C(=O)c1ccc(-c2ccccc2)[nH]1 (centres undefined) | inconclusive: 79.4 µM [inhibitor, single point] |
| O=C(CCSc1ccc(F)c(F)c1)Nc1ccc(-n2cnnn2)cc1 | inactive |
| COc1ccccc1NC(=O)C1CCN(S(=O)(=O)c2ccc3[nH]c4c(c3c2)CCCCC4)CC1 | inconclusive: 126 µM [inhibitor, partial curve, poor fit] |
| COc1ccc(NC(=O)C(OC)c2ccccc2)cc1Cl (centres undefined) | inactive |
| O=C(COC(=O)C(Cc1c[nH]c2ccccc12)NC(=O)c1ccc(Cl)cc1)c1ccc(Cl)cc1 (centres undefined) | inconclusive: 141 µM [inhibitor, partial curve, poor fit] |
| CCN(CC)C1CCOC2(CCN(C(=O)C3CC3)CC2)C1 (centres undefined) | inactive |
| COc1cc2c(cc1OC)C(O)=CC(=O)C2=O | inconclusive: 56.2 µM [inhibitor, partial curve, poor fit] |
| Oc1ccc(-c2nc(-c3ccccc3)c(-c3ccc(Br)cc3)[nH]2)cc1 | inconclusive: 50.1 µM [inhibitor, partial curve, poor fit] |
| COc1cc(NC(=O)CN2c3ccccc3CC2C)cc(OC)c1OC (centres undefined) | inactive |
| Cc1cccc(NC(=S)/N=C(\N)Nc2nc(C)c3cc(C)ccc3n2)c1 | active: 39.8 µM |
| Cc1cc(N2CCN(C)CC2)n2nc(-c3ccc(Cl)cc3)nc2n1 | inconclusive: 3.98 µM [inhibitor, full curve, poor fit] |
| CC(=O)c1ccc(-c2cc([C@H]3[C@H]4C=CC[C@@H](C)[C@@H]4C(=O)N3Cc3ccccc3)ccc2F)cc1 | inactive |
| CCN(Cc1ccc(Br)s1)C(=O)c1cnccn1 | inactive |
| Cc1ccc(-c2n[nH]c(=S)n2C)cc1Cl | inconclusive: 44.7 µM [inhibitor, partial curve, poor fit] |
| O=C(Cn1cnc(S(=O)(=O)N2CCOCC2)c1)Nc1ccc(-c2ccno2)cc1 | inconclusive: 100 µM [inhibitor, single point] |
| Cc1csc(SCC(=O)Nc2nc3ccccc3s2)n1 | inconclusive: 50.1 µM [inhibitor, partial curve] |
| COc1ccc2[nH]c3c(=O)n(CCCC(=O)NC4CCC(C)CC4)c(=S)[nH]c3c2c1 (centres undefined) | inactive |
| CCc1ccccc1-n1nc(-c2c(C)nc3scc(CC(=O)NCc4ccco4)n3c2=O)cc1C | inconclusive: 17.8 µM [inhibitor, full curve] |

| Compound | Potency |
| --- | --- |
| C/C(=N/NC(N)=S)c1cc2ccc(O)cc2oc1=O | inconclusive: 56.2 µM [inhibitor, partial curve, poor fit] |
| CN(Cc1ccccc1)Cc1nc2c(c(=O)n(C)c(=O)n2C)n1Cc1ccc(Cl)cc1 | inconclusive: 25.1 µM [inhibitor, partial curve, poor fit] |
| Nc1cccc2ccc(C(=O)O)nc12 | inactive |
| Cc1ccc(NC(=S)NNc2ccc([N+](=O)[O-])cc2S(=O)(=O)Nc2ccccc2C(=O)O)cc1C | active: 10 µM |
| COc1ccc2c(c1)CCC(=O)C(C)CCO2 (centres undefined) | inconclusive: 35.5 µM [inhibitor, partial curve, poor fit] |
| COc1ccc(/C=C2\Oc3cc(OC(=O)C(C)(C)C)ccc3C2=O)c(OC)c1 | inconclusive: 0.447 µM [inhibitor, full curve, poor fit] |
| CCCn1nc(C(=O)OC(C)C(=O)NCc2ccco2)c2ccccc2c1=O (centres undefined) | inactive |
| Cc1c(C=N)c(O)n(C)c(=O)c1C#N | inconclusive: 70.8 µM [inhibitor, partial curve, poor fit] |
| N#Cc1ccsc1NC(=O)CSc1nnc(-c2ccccc2F)n1C1CC1 | inconclusive: 35.5 µM [inhibitor, partial curve, poor fit] |
| COc1ccc(N(CC(=O)Nc2cccnc2)S(=O)(=O)c2ccc(C)cc2)cc1Cl | inconclusive: 50.1 µM [inhibitor, partial curve, poor fit] |
| CC(C)C(=O)N1CCN(c2ccccc2NC(=O)COc2ccccc2)CC1 | inactive |
| COc1cc(NC(=O)CCCc2nnc3n(CC(C)C)c(=O)c4sccc4n23)cc(OC)c1 | inconclusive: 10 µM [inhibitor, full curve, poor fit] |
| Cn1c(=O)c2c(nc(SCCN3CCOCC3)n2Cc2cccc3ccccc23)n(C)c1=O | inconclusive: 2 µM [inhibitor, full curve, poor fit] |
| NS(=O)(=O)c1ccc(NCC2COc3ccccc3O2)c([N+](=O)[O-])c1 (centres undefined) | inconclusive: 89.1 µM [inhibitor, partial curve, poor fit] |
| COc1ccccc1C(=O)Nc1ccc(S(=O)(=O)N2CCN(C)CC2)cc1 | inconclusive: 112 µM [inhibitor, single point] |
| COc1ccc(CN(CC2CCC(C(=O)O)CC2)C(=S)Nc2cc(Cl)ccc2OC)cc1 (centres undefined) | inconclusive: 50.1 µM [inhibitor, partial curve, poor fit] |
| CC(Sc1nc2ccc(C(=O)c3ccccc3)cc2[nH]1)C(=O)O (centres undefined) | inconclusive: 89.1 µM [inhibitor, single point] |
| Cn1ncc(N2CCCC(CC(=O)N3CCCCCC3)C2)cc1=O (centres undefined) | inconclusive: 39.8 µM [inhibitor, partial curve] |
| Cc1ccc(C)c(N2CCN(C(=O)CSc3ccsc3[N+](=O)[O-])CC2)c1 | inconclusive: 22.4 µM [inhibitor, partial curve] |
| Cc1nccn1CCCC(=O)N[C@@H]1CCOC[C@H]1OCC(=O)O | inconclusive: 15.8 µM [inhibitor, full curve] |
| Cc1ccc([N+](=O)[O-])c(C)[n+]1C | inconclusive: 39.8 µM [inhibitor, partial curve] |
| COc1ccccc1Oc1coc2cc(OS(C)(=O)=O)ccc2c1=O | inconclusive: 0.282 µM [inhibitor, full curve, poor fit] |

Two neighbouring compounds already listed:

| Compound | Potency |
| --- | --- |
| CC(C)C(=O)N1CCN(c2ccccc2NC(=O)COc2ccccc2)CC1 | inactive |
| COc1cc(NC(=O)CCCc2nnc3n(CC(C)C)c(=O)c4sccc4n23)cc(OC)c1 | inconclusive: 10 µM [inhibitor, full curve, poor fit] |

Further entries.

| Compound | Potency |
| --- | --- |
| O=C(c1ccc(-c2cccc([N+](=O)[O-])c2)o1)N1CCN(c2ccc([N+](=O)[O-])cc2)CC1 | inactive |
| CC(C)c1ccc(NS(=O)(=O)c2ccc3[nH]cc(C(=O)NCC4CCCO4)c(=O)c3c2)cc1 (centres undefined) | inconclusive: 50.1 µM [inhibitor, partial curve, poor fit] |
| COCCCn1cc(CN2CC(N3CCN(C4CCN(C)CC4)CC3)CS2(=O)=O)nn1 (centres undefined) | inconclusive: 17.8 µM [inhibitor, full curve] |
| Cc1noc([C@@H](C)NS(=O)(=O)c2ccc(Cl)cc2)c1C(=O)O | inconclusive: 100 µM [inhibitor, partial curve] |
| NC(=O)c1c(NC(=O)CSc2ccccn2)sc2c1CCCC2 | inconclusive: 35.5 µM [inhibitor, partial curve, poor fit] |
| O=C(c1ccccc1)N1CCc2nc(C3CC3)nc(-c3ccc(Cl)cc3)c2C1 | inconclusive: 50.1 µM [inhibitor, partial curve, poor fit] |
| CC(C)Cn1cncc1CNC(=O)c1ccc2nc(-c3ccc(F)cc3)cn2c1 | inactive |
| C[C@H]1C(c2ccc(F)cc2)=NN(c2ccccc2)[C@@H]1CO | inconclusive: 100 µM [inhibitor, single point] |
| CCCCC(=O)Nc1ccccc1C(=O)N1CCOCC1 | inconclusive: 2.24 µM [inhibitor, full curve, poor fit] |
| Clc1ccc(COn2c(-c3ccc(Cl)cc3Cl)nc3ncccc32)cc1 | inconclusive: 50.1 µM [inhibitor, single point] |
| CN(C)S(=O)(=O)c1ccc2c(c1)N(CC(=O)Nc1ccc(F)cc1)C(=O)CS2 | inconclusive: 141 µM [inhibitor, partial curve, poor fit] |
| CC(/C=C/c1ccccc1)=N\NC(=O)c1cc(C)nc2ccccc12 | inactive |
| O=C(CCCC1=NS(=O)(=O)c2ccccc2N1)OCc1ccc(Cl)cc1 | inconclusive: 0.355 µM [inhibitor, full curve, poor fit] |
| O=C(c1ccc2cc[nH]c2c1)N1CCC2(CC1)N=C(c1cccc(Br)c1)NO2 | inconclusive: 14.1 µM [inhibitor, full curve, poor fit] |
| Cc1cc(=O)n2nc(N(C)Cc3ccc4c(c3)OCO4)sc2n1 | inconclusive: 35.5 µM [inhibitor, single point] |
| c1ccc(Cn2nnnc2C(c2cccs2)N2CCSCC2)cc1 (centres undefined) | inactive |
| O=C(O)c1cc(F)c(Cl)cc1Cl | inconclusive: 11.2 µM [inhibitor, full curve, poor fit] |
| C=CCNC(=S)N/N=C/c1cn(-c2ccccc2)nc1-c1ccc(OC)cc1 | active: 39.8 µM |
| Cc1ccc(-c2nc3cnccn3c2NCCC(=O)N(C)C)cc1 | inconclusive: 89.1 µM [inhibitor, single point] |
| Nc1c(C(=O)O)sc2nc(-c3ccccc3)cc(-c3ccc(F)cc3)c12 | inconclusive: 50.1 µM [inhibitor, partial curve, poor fit] |

A second format for part of the listing above:
Compound | Potency
Cc1noc([C@@H](C)NS(=O)(=O)c2ccc(Cl)cc2)c1C(=O)O | inconclusive: 100 µM [inhibitor, partial curve]
NC(=O)c1c(NC(=O)CSc2ccccn2)sc2c1CCCC2 | inconclusive: 35.5 µM [inhibitor, partial curve, poor fit]
O=C(c1ccccc1)N1CCc2nc(C3CC3)nc(-c3ccc(Cl)cc3)c2C1 | inconclusive: 50.1 µM [inhibitor, partial curve, poor fit]
CC(C)Cn1cncc1CNC(=O)c1ccc2nc(-c3ccc(F)cc3)cn2c1 | inactive
